# Library screen at single concentrations

Each number is a percent effect as filed. How 0% and 100% were set is not recorded. Most values in the screen are low, and negative values occur. This is an unselected part of the compounds tested. Two or more numbers in one place are separate tests of the same structure; such repeats can differ widely.

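Phenotypic screen: M. tuberculosis growth, glucose 7H9 medium, 3 days; the read-out is not stated. Tested at 50 µM. The record gives no direction; compounds that gave an IC50 in retests scored well above the rest, so higher reads as more growth inhibition. About 69,000 compounds were tested under these conditions; 1.1% (about 760) showed 50% or more at least once.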

* CCC(C)NC(=O)NCc1cc2n(n1)CCCN(C1CCCCC1)C2 (centres unmarked) : -48.91%
* Cn1ccc(CN2CCC(CC(=O)NC3CCCC3)CC2)cc1=O : 11.34%
* COCCN1CC(c2cc(O)nc(NC(C)C)n2)CC1=O (centres unmarked) : 9.303%
* COCCN1CCC2(CC1)CC(NCc1cncn1C)c1ccccc12.O=C(O)C(F)(F)F.O=C(O)C(F)(F)F (centres unmarked) : -4.17% and -29.95%
* Cc1nn(C)c2c(=O)n(CC(=O)NCCC(C)C)ccc12 : 3.918%
* NCCn1cc(C(=O)NCc2ccccc2Cn2cccn2)nn1 : 13.82%
* [H][C@]12CO[C@@H](CNS(C)(=O)=O)[C@@]1([H])CCN(C(=O)c1cccn1C)C2 : -5.073% and -5.399%
* O=C(O)C(F)(F)F.[H][C@@]12COC[C@]1(COCc1cccnc1)CN(C(=O)c1ccccc1F)C2 : 7.819% and -9.06%
* CC(C)(O)c1cn(C2CCN(C(=O)CCC(F)(F)F)CC2)nn1 : -0.4112% and -7.558%
* Cc1ncc2c(n1)CN(Cc1nc(Cc3ccccc3)no1)CC2 : 15.79%
* O=C(c1nccc2ccccc12)N(Cc1ccco1)CC1CCCO1 (centres unmarked) : 13.32% and -6.62%
* CC(CNS(C)(=O)=O)c1ccc(F)c(F)c1 (centres unmarked) : -6.709% and 16.53%
* Cn1ccc2c(C(=O)N3CCCC3c3noc(C4CC4)n3)cccc21 (centres unmarked) : -14.93%
* COc1ccc(C(CNS(=O)(=O)c2cn(C)nc2C)N2CCCC2)cc1.Cl (centres unmarked) : -42.05%
* COC(=O)c1cccc(S(=O)(=O)NC(=O)COC2CCCC2)c1 : 7.767%
* CC(C)c1ccc(OCCC(=O)N2CCC(CC(N)=O)CC2)cc1 : 3.163%
* Cc1ccc(C(=O)Nc2ccc(N3CCCC3)cn2)cc1F : 2.626% and -12.02%
* NC(=O)CN1CCCC1c1cncc(Oc2ccc(Cl)cc2)n1 (centres unmarked) : -0.5916%
* CC(C)CCOCCNC(=O)Nc1cc(C(F)(F)F)c[nH]c1=O : 6.641%
* COc1ccc(Cl)cc1CCNC(=O)NCc1ccncc1 : 17.31%
* CCOc1ccc(C(=O)NCc2ccnc(N3CCCC3)c2)cn1 : 24.72% and 14.17%
* O=C(O)C(F)(F)F.O=C(O)C(F)(F)F.[H][C@]12CC(=O)N(Cc3cccc(C)n3)[C@@]1([H])CCN2Cc1ccc(F)cc1 : 12.64%
* Cc1nc(C)n(CC2CN(CCOc3ccc(C#N)cc3)CCO2)n1 (centres unmarked) : -14.25%
* COc1ccc(CN(Cc2cncn2C)CC2CCCO2)cc1.O=C(O)CC(O)(CC(=O)O)C(=O)O (centres unmarked) : 7.319%
* CS(=O)(=O)CCNCc1ccc(OCc2cscn2)cc1 : -22.27%
* CCOCC1CN(CC2CC2)Cc2cnn(C)c21 (centres unmarked) : -3.94%
* COc1ccc(CN(C)C2CCN(C(=O)C(C)C)CC2)c2cccnc12 : 18.9%
* CC(C)CC(NCc1ccsc1)c1ccccn1 (centres unmarked) : -24.22%
* CC(C)(C)c1n[nH]c(C2CN(C(=O)c3cc(C4CC4)on3)CCO2)n1 (centres unmarked) : -32.14% and -6.506%
* O=C(O)c1cc(-c2cn[nH]c2)cc(S(=O)(=O)N2CCSCC2)c1 : -31.7% and 7.879%
* COc1c(CNCC(=O)N2CCN(C)CC2)c(C(C)C)nn1C : 11.29%
* O=C(O)C(F)(F)F.[H][C@]12CCN(C(=O)c3ccno3)[C@@]1([H])CC[C@H](COCCN1CCCC1)O2 : -4.997%
* CC(C)Cc1nc(CN2CCOC(Cn3cncn3)C2)no1 (centres unmarked) : -40.55% and -4.215%
* CC(C)N1CCc2c(CN(C)Cc3ccco3)cncc2C1.Cl.Cl.Cl : 16.22%
* O=C(O)C(F)(F)F.[H][C@@]12CO[C@@H](CNS(C)(=O)=O)[C@]1([H])CCN(C(=O)c1ccccn1)C2 : -33.89% and -5.293%
* O=C(O)C(F)(F)F.O=C(O)C(F)(F)F.[H][C@@]12OCCN(Cc3nccs3)[C@@]1([H])CC[C@H]2Oc1ncccc1F : 17.13% and 15.91%
* Cc1ccc(C(O)CN(C)Cc2cnn(C)c2)cc1C (centres unmarked) : 42.77%
* COCC(=O)N1CCCC1c1cc(N2CCN(C(C)=O)CC2)cc(C)n1 (centres unmarked) : 10.37%
* [H][C@]12CCC(=O)N(c3ccccc3)[C@@]1([H])CCN2C(=O)C1CC=CC1 : -17.57%
* O=C(CSCCN1CCOCC1)N1CCCCCC1 : -26.93%
* CCC(=O)N1CCC(c2nc3ccc(NC(C)C)cn3n2)CC1 : -14.87%
* CCCn1nc(-c2nc(Cc3ccc(OC)cc3)no2)ccc1=O : 23.82%
* CN1CCN(C(C)(C)CNC(=O)C2CCCN2S(C)(=O)=O)CC1 (centres unmarked) : -59.52%
* O=C(NC1CCCN(Cc2c(F)cccc2F)C1)c1cnccn1 (centres unmarked) : 24.39%
* CCc1cnc(CN(C(C)=O)C2CCN(CCc3cnn(C)c3)C2)o1 (centres unmarked) : -21.61%
* CC(=O)C(Cc1ccccc1)NC(=O)CSc1nncn1C (centres unmarked) : -19.23%
* CCNC(=O)N1CCC2(C1)c1ccccc1S(=O)(=O)N2CCC(C)C (centres unmarked) : -1.891%
* O=C(c1ccccc1-c1ccccc1)N1CCOC2(CNCCOC2)C1 (centres unmarked) : -22.27%
* O=C(O)C(F)(F)F.OCCOCc1ncn2c1CN(Cc1cccs1)CCC2 : -28.48%
* Cc1cnn(CC2CCCN2c2nn3cc(C)nc3s2)c1 (centres unmarked) : 9.997%
* COc1nn(C)c2c1CCCN(S(=O)(=O)c1cccc(C)c1)C2 : 8.729% and 1.411%
* Cc1nc2n(n1)CC(NCc1ccnc(-c3ccccc3)n1)CC2 (centres unmarked) : -12.67%
* Cc1ccc(CN2CCCC3(CCC(=O)N3)CC2)s1.O=C(O)C(F)(F)F (centres unmarked) : 0.2121%
* Cc1cnn(CC2CCCN2C(=O)c2sccc2C#N)c1 (centres unmarked) : 2.594% and 17.88%
* Cc1nnc(CN(Cc2ccc(Cl)c(Cl)c2)C(C)C)o1 : -0.04983%

Once more, the final 4:

Compound	Percent Effect
Cc1nc2n(n1)CC(NCc1ccnc(-c3ccccc3)n1)CC2 (centres unmarked)	-12.67%
Cc1ccc(CN2CCCC3(CCC(=O)N3)CC2)s1.O=C(O)C(F)(F)F (centres unmarked)	0.2121%
Cc1cnn(CC2CCCN2C(=O)c2sccc2C#N)c1 (centres unmarked)	2.594% and 17.88%
Cc1nnc(CN(Cc2ccc(Cl)c(Cl)c2)C(C)C)o1	-0.04983%

Data taken from ChEMBL document CHEMBL3988442, “University of Dundee, Small-Polar-MMV Screening Library” (2021).